Source: ChEMBL document CHEMBL3988442, “University of Dundee, Small-Polar-MMV Screening Library” (2021).

Mtb cholesterol medium: 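Growth of Mycobacterium tuberculosis over 4 days (cholesterol / DPPC medium with tyloxapol); the read-out is not stated. Tested at 50 µM. The record gives no direction; compounds that gave an IC50 in retests scored well above the rest, so higher reads as more growth inhibition. Size under these conditions: about 69,000 compounds, about 370 of them at 50% or above in at least one test.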
Mtb glucose medium: 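Phenotypic screen: M. tuberculosis growth, glucose 7H9 medium, 3 days; the read-out is not stated. Concentration: 50 µM. The record gives no direction; compounds that gave an IC50 in retests scored well above the rest, so higher reads as more growth inhibition. Of about 69,000 compounds tested this way, about 760 (1.1%) reached 50% or more in at least one test.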

Results are given as percent effect. The controls that fix the scale are not given in the record; negative values are as filed. Compounds were drawn at random from those tested, without regard to their results. Two or more numbers in one place are separate tests of the same structure; such repeats can differ widely.

| SMILES | Mtb cholesterol medium | Mtb glucose medium |
|---|---|---|
| `CCc1ncc2c(n1)CN(C(C(N)=O)c1ccccc1)CC2` (centres unmarked) | -18.58 | -15.38 |
| `O=C(NC[C@H]1OC[C@@H](N(CC2CC2)CC2CC2)[C@@H]1O)Nc1ccccc1` | -21.18 | -6.117 and -26.62 |
| `Cc1nn(C)c(C)c1C(C)NC(=O)c1cc(CN2CCC(O)CC2)on1` (centres unmarked) | 11.85 | 11.49 |
| `Fc1ccc2[nH]c3c(c2c1)CCN1C(c2ccccn2)N2CCC31CC2` (centres unmarked) | -11.95 | 28.4 |
| `CCOc1ccc(C(F)(F)F)cc1NC(=O)N1CCNC(=O)C1` | 9.885 | 4.738 |
| `COCc1nc(Cn2ncn3cccc3c2=O)no1` | 2.263 | 21.65 |
| `CC(C)(CNC(=O)Nc1nccs1)N1CCOCC1` | -21.89 | -1.588 and -19.39 |
| `Cn1cc(CN2CCCC23CCN(C(=O)c2ccccc2)CC3)cn1.O=C(O)C(F)(F)F` | -12.56 | -11.23 |
| `COC(=O)c1ccc(S(=O)(=O)N(C)CC(N)=O)c(Cl)c1` | -16.42 and -2.303 | -13.45 |
| `Cn1ccnc1C(O)c1ccccc1N1CCN(Cc2ccsc2)CC1` (centres unmarked) | 13.34 and -7.379 | 12.85 |
| `CCCS(=O)(=O)NC(=O)c1ccc(Br)o1` | -5.491 | -3.692 and 4.438 |
| `OC1CCN(Cc2ccc(CNc3ccc(Cl)cn3)cc2)CC1` | 10.66 | 16.32 and 30.74 |
| `CN(Cc1cnccn1)CC1CCOc2ccccc2C1` (centres unmarked) | -0.7211 | 27.78 |
| `CC(=O)Nc1ccc(CNCc2cccnc2N(C)C)cc1` | 11.95 | 17.25 |
| `COc1ccccc1OCc1cc(C(=O)NC[C@@H]2CCCN2)n[nH]1` | -3.97 | -9.539 |
| `CC(=O)N1CCCCCC1C1CCN(Cc2nc(C3CC3)no2)CC1` (centres unmarked) | -9.87 | -6.13 |
| `CC(C)[C@H]1CN(Cc2ccccn2)C[C@@H]1NS(=O)(=O)C1CC1` | -2.3 | -10.53 |
| `Cc1nc(CN2CCCN(CC(=O)Nc3cccnc3)CC2)no1` | -13.67 | -26.4 |
| `CN(CCc1ccccc1)Cc1cnc(C2(C)CCCCO2)nc1` (centres unmarked) | -0.8719 and 0.3613 | -16.05 |
| `CCNC(=O)CCC(=O)NC1(c2cccc(C(F)(F)F)c2)CCC1` | -16.71 | -15.45 |
| `O=C(Cn1cc(Cl)cn1)N1CCNC1=O` | -3.862 | -16.19 |
| `Cc1cnc(N2CCC3(CC2)CC(N(C)Cc2ccncc2)C3)nc1.O=C(O)C(F)(F)F.O=C(O)C(F)(F)F` | 1.839 | 42.64 |
| `Cc1ccc(S(=O)(=O)NC(=O)c2cccc(OCC(N)=O)c2)s1` | -12.13 | -1.697 |
| `c1ncn(CC2CCCN(CC3CCCCC3)C2)n1` (centres unmarked) | -10.7 | 9.868 |
| `Cc1nc(CC2CCN(Cc3ccc(CCC(C)(C)O)cc3)CC2)no1` | 5.012 | -1.392 |
| `COCCn1cc(CCC(=O)Nc2c(C)nn(C)c2C)c2ccccc21` | -48.29 | -56.93 and -9.104 |
| `O=C(NCc1nnc2n1CCCCC2)N1CCc2ccccc2C1` | -6.625 | -16.7 |
| `COc1cc(C)sc1C(=O)N1CCCC(n2nc(C)nc2C)C1` (centres unmarked) | -8.726 | -16.41 |
| `Cc1ccc(CNC2(Cc3cc(-c4ccc(F)cc4)on3)COC2)o1` | -1.149 | 14.28 and 9.26 |
| `CC(=O)c1cccc(OCCCC(=O)N(C)Cc2cnn(C)c2)c1` | 6.613 | -10.25 and -41.6 |
| `Cc1cccc(CN2CCc3ncnc(N4CCN(C)CC4)c3CC2)n1.O=C(O)C(F)(F)F.O=C(O)C(F)(F)F` | 9.204 | 5.022 |
| `Cc1nc(C)n(C2CCCN(C(=O)c3csc(C)n3)C2)n1` (centres unmarked) | -18.35 | 5.724 |
| `O=C(c1cscn1)N1CCC2(COc3ncccc3S(=O)(=O)N2)C1` (centres unmarked) | 0.825 | 19.67 |
| `CN(C)C(=O)COCC1CN(C2CCC2)Cc2ncn(C)c21.O=C(O)C(F)(F)F.O=C(O)C(F)(F)F` (centres unmarked) | -44.42 | -12.49 |
| `CC(=O)N1CCC2(CC1)CCN(C(=O)c1ccc(F)c(C(F)(F)F)c1)C2` | -10.89 | -5.927 |
| `COC1COC2(CCN(Cc3ccc4ccccc4n3)CC2)C1.O=C(O)C(F)(F)F.O=C(O)C(F)(F)F` (centres unmarked) | 2.251 | 30.37 |
| `NC(=O)c1ccc(C(=O)N2CCCCC2Cn2cccn2)s1` (centres unmarked) | -17.23 | 9.858 |
| `Cc1cc(C(=O)N2CCCN(Cc3nccn3C)CC2)no1` | -10.13 | -23.14 |
| `c1csc(N2CCCN(Cc3noc(C4CC4)n3)CC2)n1` | -14.69 | -12.26 |
| `CCOCc1ncn2c1CN(C(=O)Nc1cccc(C)c1)CC2` | -11.46 and -4.452 | -0.2001 |
| `CCc1cc(N[C@H](C(N)=O)C(C)C)n2nc(C)c(C)c2n1` | -3.041 | 0.3029 |
| `[H][C@@]12CS(=O)(=O)C[C@]1([H])NCCN2C(=O)COc1cccnc1C` | -12.19 | 1.261 |
| `[H][C@]12CC[C@]([H])(CN(C)C1)N(C(=O)c1ccc(OCC)c(OCC)c1)C2` | -8.349 | -22.41 and -9.908 |
| `COc1ccccc1-c1c[nH]c(C2CCCN2)n1.Cl.Cl` (centres unmarked) | 9.529 | 12.82 |

Some entries from above, unchanged:

- Cc1cnc(N2CCC3(CC2)CC(N(C)Cc2ccncc2)C3)nc1.O=C(O)C(F)(F)F.O=C(O)C(F)(F)F : Mtb cholesterol medium: 1.839%; Mtb glucose medium: 42.64%
- CCCS(=O)(=O)NC(=O)c1ccc(Br)o1 : Mtb cholesterol medium: -5.491%; Mtb glucose medium: -3.692% and 4.438%
- Cc1nn(C)c(C)c1C(C)NC(=O)c1cc(CN2CCC(O)CC2)on1 (centres unmarked) : Mtb cholesterol medium: 11.85%; Mtb glucose medium: 11.49%
- CC(C)(CNC(=O)Nc1nccs1)N1CCOCC1 : Mtb cholesterol medium: -21.89%; Mtb glucose medium: -1.588% and -19.39%
- COc1cc(C)sc1C(=O)N1CCCC(n2nc(C)nc2C)C1 (centres unmarked) : Mtb cholesterol medium: -8.726%; Mtb glucose medium: -16.41%
- CC(=O)Nc1ccc(CNCc2cccnc2N(C)C)cc1 : Mtb cholesterol medium: 11.95%; Mtb glucose medium: 17.25%